Test results taken from US20170001952A1, “FUMARATE COMPOUNDS, PHARMACEUTICAL COMPOSITIONS THEREOF, AND METHODS OF USE” (priority 2015, published 2017).
Some of these results come from one statement about several compounds together.

Legend:
[1] = system: porcine liver esterase; experiment: Hydrolysis of fumarate compounds in vitro with porcine liver esterase; assay type: in vitro ADME; settings: porcine liver esterase in PBS buffer pH 7.0 to 8.0, 20 to 37° C., ca. 24 h
[2] = Stability of fumarate compounds in PBS buffer; assay type: physicochemical; settings: PBS 50 mM, pH 7.0 to 7.4, 20 to 37° C., 60 min

| SMILES | converted to monoester fumarates and/or fumaric acid [1] | stable in PBS buffer (HPLC) [2] |
| --- | --- | --- |
| CCOC(=O)NCCOC(=O)/C=C/C(=O)OCCNC(=O)OCC [Compound 4, Bis[2-(ethoxycarbonylamino)ethyl] (E)-but-2-enedioate] | > 10% | > 90% |
| COC(=O)NCCOC(=O)/C=C/C(=O)OCCNC(=O)OC [Compound 3, Bis[2-(methoxycarbonylamino)ethyl] (E)-but-2-enedioate] | > 10% | > 90% |
| O=C(/C=C/C(=O)OCCCNC(=O)OCc1ccccc1)OCCCNC(=O)OCc1ccccc1 [Compound 29, Bis[3-(benzyloxycarbonylamino)propyl] (E)-but-2-enedioate] | > 10% | > 90% |
| CC(C)[C@H](COC(=O)/C=C/C(=O)OC[C@H](NC(=O)OC(C)(C)C)C(C)C)NC(=O)OC(C)(C)C [Compound 22, Bis[(2R)-2-(tert-butoxycarbonylamino)-3-methyl-butyl] (E)-but-2-enedioate] | > 10% | > 90% |
| CC(C)OC(=O)N[C@H](COC(=O)/C=C/C(=O)OC[C@@H](NC(=O)OC(C)C)C(C)C)C(C)C [Compound 27, Bis[(2S)-2-(isopropoxycarbonylamino)-3-methyl-butyl] (E)-but-2-enedioate] | > 10% | > 90% |
| CC(C)OC(=O)NCCOC(=O)/C=C/C(=O)OCCNC(=O)OC(C)C [Compound 5, Bis[2-(isopropoxycarbonylamino)ethyl] (E)-but-2-enedioate] | > 10% | > 90% |
| CC(C)(C)OC(=O)NCCOC(=O)/C=C/C(=O)OCCNC(=O)OC(C)(C)C [Compound 1, Bis[2-(tert-butoxycarbonylamino)ethyl] (E)-but-2-enedioate] | > 10% | > 90% |
| COC(=O)N[C@@H](C)COC(=O)/C=C/C(=O)OC[C@H](C)NC(=O)OC [Compound 17, Bis[(2S)-2-(methoxycarbonylamino)propyl] (E)-but-2-enedioate] | > 10% | > 90% |
| CC(C)OC(=O)N[C@@H](C)COC(=O)/C=C/C(=O)OC[C@H](C)NC(=O)OC(C)C [Compound 19, Bis[(2S)-2-(isopropoxycarbonylamino)propyl] (E)-but-2-enedioate] | > 10% | > 90% |
| CC(C)[C@H](COC(=O)/C=C/C(=O)OC[C@H](NC(=O)OCc1ccccc1)C(C)C)NC(=O)OCc1ccccc1 [Compound 23, Bis[(2R)-2-(benzyloxycarbonylamino)-3-methyl-butyl] (E)-but-2-enedioate] | > 10% | > 90% |
| CC(C)OC(=O)N[C@H](C)COC(=O)/C=C/C(=O)OC[C@@H](C)NC(=O)OC(C)C [Compound 12, Bis[(2R)-2-(isopropoxycarbonylamino)propyl] (E)-but-2-enedioate] | > 10% | > 90% |
| CC(C)[C@@H](COC(=O)/C=C/C(=O)OC[C@@H](NC(=O)OC(C)(C)C)C(C)C)NC(=O)OC(C)(C)C [Compound 25, Bis[(2S)-2-(tert-butoxycarbonylamino)-3-methyl-butyl] (E)-but-2-enedioate] | > 10% | > 90% |
| CC(C)OC(=O)N[C@@H](COC(=O)/C=C/C(=O)OC[C@H](NC(=O)OC(C)C)C(C)C)C(C)C [Compound 24, Bis[(2R)-2-(isopropoxycarbonylamino)-3-methyl-butyl] (E)-but-2-enedioate] | > 10% | > 90% |
| CC(C)OC(=O)NCCCOC(=O)/C=C/C(=O)OCCCNC(=O)OC(C)C [Compound 30, Bis[3-(isopropoxycarbonylamino)propyl] (E)-but-2-enedioate] | > 10% | > 90% |
| C[C@@H](COC(=O)/C=C/C(=O)OC[C@H](C)NC(=O)OC(C)(C)C)NC(=O)OC(C)(C)C [Compound 15, Bis[(2S)-2-(tert-butoxycarbonylamino)propyl] (E)-but-2-enedioate] | > 10% | > 90% |
| O=C(/C=C/C(=O)OCCNC(=O)OCc1ccccc1)OCCNC(=O)OCc1ccccc1 [Compound 2, Bis[2-(benzyloxycarbonylamino)ethyl] (E)-but-2-enedioate] | > 10% | > 90% |
| CC(C)(C)OC(=O)NCCCOC(=O)/C=C/C(=O)OCCCNC(=O)OC(C)(C)C [Compound 28, Bis[3-(tert-butoxycarbonylamino)propyl] (E)-but-2-enedioate] | > 10% | > 90% |
| C[C@@H](COC(=O)/C=C/C(=O)OC[C@H](C)NC(=O)OC1CCCCC1)NC(=O)OC1CCCCC1 [Compound 20, Bis[(2S)-2-(cyclohexoxycarbonylamino)propyl] (E)-but-2-enedioate] | > 10% | > 90% |
| COC(=O)N[C@H](C)COC(=O)/C=C/C(=O)OC[C@@H](C)NC(=O)OC [Compound 10, Bis[(2R)-2-(methoxycarbonylamino)propyl] (E)-but-2-enedioate] | > 10% | > 90% |
| C[C@H](COC(=O)/C=C/C(=O)OC[C@@H](C)NC(=O)OC(C)(C)C)NC(=O)OC(C)(C)C [Compound 8, Bis[(2R)-2-(tert-butoxycarbonylamino)propyl] (E)-but-2-enedioate] | > 10% | > 90% |
| O=C(/C=C/C(=O)OCCNC(=O)OC1CCCCC1)OCCNC(=O)OC1CCCCC1 [Compound 6, Bis[2-(cyclohexoxycarbonylamino)ethyl] (E)-but-2-enedioate] | > 10% | > 90% |
| C[C@H](COC(=O)/C=C/C(=O)OC[C@@H](C)NC(=O)OC1CCCCC1)NC(=O)OC1CCCCC1 [Compound 13, Bis[(2R)-2-(cyclohexoxycarbonylamino)propyl] (E)-but-2-enedioate] | > 10% | > 90% |
| CCOC(=O)N[C@H](C)COC(=O)/C=C/C(=O)OC[C@@H](C)NC(=O)OCC [Compound 11, Bis[(2R)-2-(ethoxycarbonylamino)propyl] (E)-but-2-enedioate] | > 10% | > 90% |
| CCOC(=O)N[C@@H](C)COC(=O)/C=C/C(=O)OC[C@H](C)NC(=O)OCC [Compound 18, Bis[(2S)-2-(ethoxycarbonylamino)propyl] (E)-but-2-enedioate] | > 10% | > 90% |
| C[C@@H](COC(=O)/C=C/C(=O)OC[C@H](C)NC(=O)OCc1ccccc1)NC(=O)OCc1ccccc1 [Compound 16, Bis[(2S)-2-(benzyloxycarbonylamino)propyl] (E)-but-2-enedioate] | > 10% | > 90% |
| C[C@H](COC(=O)/C=C/C(=O)OC[C@@H](C)NC(=O)OCc1ccccc1)NC(=O)OCc1ccccc1 [Compound 9, Bis[(2R)-2-(benzyloxycarbonylamino)propyl] (E)-but-2-enedioate] | > 10% | > 90% |
| CC(C)[C@@H](COC(=O)/C=C/C(=O)OC[C@@H](NC(=O)OCc1ccccc1)C(C)C)NC(=O)OCc1ccccc1 [Compound 26, Bis[(2S)-2-(benzyloxycarbonylamino)-3-methyl-butyl] (E)-but-2-enedioate] | > 10% | > 90% |
